Results on 17 molecules are retold here after paper PMC10297445.

The chains behind the UniProt entries cited, without tags or fusion partners. Where a name states a change or a piece, a line headed by the entry shows the natural chain unless it says otherwise. Residues count along the entry.
UniProt P48036: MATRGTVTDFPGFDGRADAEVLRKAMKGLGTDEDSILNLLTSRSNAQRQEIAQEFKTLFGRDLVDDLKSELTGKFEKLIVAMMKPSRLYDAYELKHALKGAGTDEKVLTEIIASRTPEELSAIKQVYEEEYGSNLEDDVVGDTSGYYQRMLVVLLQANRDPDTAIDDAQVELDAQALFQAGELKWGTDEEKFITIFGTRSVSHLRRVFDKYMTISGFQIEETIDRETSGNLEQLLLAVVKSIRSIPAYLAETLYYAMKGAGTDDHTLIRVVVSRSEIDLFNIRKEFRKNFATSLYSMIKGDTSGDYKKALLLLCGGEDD
UniProt P18242: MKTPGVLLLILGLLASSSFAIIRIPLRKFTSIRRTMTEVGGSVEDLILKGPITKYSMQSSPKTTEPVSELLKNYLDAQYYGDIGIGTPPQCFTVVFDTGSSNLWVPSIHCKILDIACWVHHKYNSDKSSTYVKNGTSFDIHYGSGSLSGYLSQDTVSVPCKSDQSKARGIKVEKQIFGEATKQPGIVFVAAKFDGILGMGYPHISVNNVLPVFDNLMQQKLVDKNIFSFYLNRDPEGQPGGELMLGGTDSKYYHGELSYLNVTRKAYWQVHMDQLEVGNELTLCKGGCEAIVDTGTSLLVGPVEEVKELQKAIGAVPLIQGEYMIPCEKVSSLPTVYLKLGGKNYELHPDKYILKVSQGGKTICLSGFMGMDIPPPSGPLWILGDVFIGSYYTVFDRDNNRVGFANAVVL
UniProt P35293: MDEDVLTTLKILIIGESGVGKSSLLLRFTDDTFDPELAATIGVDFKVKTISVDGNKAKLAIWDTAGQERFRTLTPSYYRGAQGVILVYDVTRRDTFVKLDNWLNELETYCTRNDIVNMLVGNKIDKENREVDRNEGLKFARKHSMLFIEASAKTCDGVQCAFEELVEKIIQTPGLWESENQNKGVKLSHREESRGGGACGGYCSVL
UniProt Q8BRF7: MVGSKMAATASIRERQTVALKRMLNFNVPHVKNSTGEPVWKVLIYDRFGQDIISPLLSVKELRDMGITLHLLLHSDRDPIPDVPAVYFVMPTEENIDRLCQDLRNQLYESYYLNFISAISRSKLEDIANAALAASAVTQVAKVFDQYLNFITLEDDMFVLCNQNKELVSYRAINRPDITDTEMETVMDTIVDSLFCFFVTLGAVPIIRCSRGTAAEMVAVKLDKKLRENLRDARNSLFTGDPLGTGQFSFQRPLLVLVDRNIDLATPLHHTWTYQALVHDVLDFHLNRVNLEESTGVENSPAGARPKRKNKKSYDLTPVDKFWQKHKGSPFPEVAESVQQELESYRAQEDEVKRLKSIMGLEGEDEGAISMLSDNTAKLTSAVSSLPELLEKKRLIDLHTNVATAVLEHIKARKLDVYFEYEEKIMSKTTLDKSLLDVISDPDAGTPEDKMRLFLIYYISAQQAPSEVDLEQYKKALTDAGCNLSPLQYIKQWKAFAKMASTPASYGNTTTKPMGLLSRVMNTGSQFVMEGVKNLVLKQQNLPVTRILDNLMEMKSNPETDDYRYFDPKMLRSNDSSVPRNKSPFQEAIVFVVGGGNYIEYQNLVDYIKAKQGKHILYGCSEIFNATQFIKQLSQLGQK
UniProt Q00PI9: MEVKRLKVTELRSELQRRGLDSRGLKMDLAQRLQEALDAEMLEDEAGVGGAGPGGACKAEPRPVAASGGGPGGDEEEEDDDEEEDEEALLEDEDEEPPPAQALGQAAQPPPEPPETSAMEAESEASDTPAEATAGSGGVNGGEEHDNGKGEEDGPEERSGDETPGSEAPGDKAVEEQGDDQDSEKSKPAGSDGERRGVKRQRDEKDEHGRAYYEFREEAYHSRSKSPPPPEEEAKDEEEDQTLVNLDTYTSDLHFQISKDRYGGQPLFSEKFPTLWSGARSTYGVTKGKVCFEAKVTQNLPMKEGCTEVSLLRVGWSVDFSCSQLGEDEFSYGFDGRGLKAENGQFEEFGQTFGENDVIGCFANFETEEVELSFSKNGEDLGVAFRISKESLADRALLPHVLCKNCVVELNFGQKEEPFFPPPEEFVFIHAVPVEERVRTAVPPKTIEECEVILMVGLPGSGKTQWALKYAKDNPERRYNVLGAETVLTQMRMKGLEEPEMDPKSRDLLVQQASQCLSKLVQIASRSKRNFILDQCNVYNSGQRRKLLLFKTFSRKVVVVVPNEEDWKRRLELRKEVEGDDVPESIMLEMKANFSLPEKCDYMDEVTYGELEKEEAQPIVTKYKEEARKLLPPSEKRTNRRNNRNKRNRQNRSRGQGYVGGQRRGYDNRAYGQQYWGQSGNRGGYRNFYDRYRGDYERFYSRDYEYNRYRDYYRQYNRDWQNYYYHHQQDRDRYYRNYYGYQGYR
UniProt O35604, residues 23-1277: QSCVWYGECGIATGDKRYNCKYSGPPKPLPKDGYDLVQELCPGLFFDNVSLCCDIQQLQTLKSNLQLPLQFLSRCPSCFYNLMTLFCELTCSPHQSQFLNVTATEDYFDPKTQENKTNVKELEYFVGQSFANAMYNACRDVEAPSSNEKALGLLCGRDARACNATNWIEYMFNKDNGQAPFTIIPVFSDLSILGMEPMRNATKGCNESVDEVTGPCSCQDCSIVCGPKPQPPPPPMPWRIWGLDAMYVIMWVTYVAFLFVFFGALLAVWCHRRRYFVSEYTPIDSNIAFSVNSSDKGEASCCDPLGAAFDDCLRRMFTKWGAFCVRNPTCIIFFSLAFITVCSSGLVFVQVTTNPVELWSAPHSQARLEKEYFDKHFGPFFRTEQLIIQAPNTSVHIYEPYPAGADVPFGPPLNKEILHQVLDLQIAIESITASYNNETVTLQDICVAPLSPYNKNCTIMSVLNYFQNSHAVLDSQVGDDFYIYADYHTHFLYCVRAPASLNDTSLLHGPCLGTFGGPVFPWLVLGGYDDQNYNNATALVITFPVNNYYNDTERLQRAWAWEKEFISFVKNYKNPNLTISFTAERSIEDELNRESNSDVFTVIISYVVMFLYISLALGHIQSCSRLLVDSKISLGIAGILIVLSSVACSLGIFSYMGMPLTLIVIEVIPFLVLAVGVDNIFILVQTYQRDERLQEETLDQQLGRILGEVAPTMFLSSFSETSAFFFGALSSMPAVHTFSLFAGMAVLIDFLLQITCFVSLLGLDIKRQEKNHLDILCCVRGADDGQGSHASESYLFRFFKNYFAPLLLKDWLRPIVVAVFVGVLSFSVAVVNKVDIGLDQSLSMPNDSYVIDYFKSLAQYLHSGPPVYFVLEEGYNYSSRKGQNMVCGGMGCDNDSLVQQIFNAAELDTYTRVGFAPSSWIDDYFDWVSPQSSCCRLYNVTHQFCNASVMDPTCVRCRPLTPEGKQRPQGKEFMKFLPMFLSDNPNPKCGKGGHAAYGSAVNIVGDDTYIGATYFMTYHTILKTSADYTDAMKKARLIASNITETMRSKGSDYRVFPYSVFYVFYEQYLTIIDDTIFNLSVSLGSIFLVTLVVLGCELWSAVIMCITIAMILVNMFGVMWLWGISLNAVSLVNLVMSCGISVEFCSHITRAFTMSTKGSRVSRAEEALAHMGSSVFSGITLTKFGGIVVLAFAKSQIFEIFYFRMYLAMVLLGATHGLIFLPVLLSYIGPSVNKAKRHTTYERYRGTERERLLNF
UniProt Q9WUM3: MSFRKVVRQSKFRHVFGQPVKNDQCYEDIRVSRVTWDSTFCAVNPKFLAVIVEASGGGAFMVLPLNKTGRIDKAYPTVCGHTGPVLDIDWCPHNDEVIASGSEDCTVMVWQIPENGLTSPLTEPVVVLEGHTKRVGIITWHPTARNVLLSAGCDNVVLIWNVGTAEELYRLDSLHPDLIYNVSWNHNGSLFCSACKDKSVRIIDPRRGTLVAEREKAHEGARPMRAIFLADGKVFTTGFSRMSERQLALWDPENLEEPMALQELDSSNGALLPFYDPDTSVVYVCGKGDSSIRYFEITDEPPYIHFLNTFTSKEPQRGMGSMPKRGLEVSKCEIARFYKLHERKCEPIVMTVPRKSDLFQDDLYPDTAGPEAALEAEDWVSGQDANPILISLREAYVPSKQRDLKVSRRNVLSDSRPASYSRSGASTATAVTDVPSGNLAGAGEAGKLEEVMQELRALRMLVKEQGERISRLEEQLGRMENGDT
UniProt D4AFX7: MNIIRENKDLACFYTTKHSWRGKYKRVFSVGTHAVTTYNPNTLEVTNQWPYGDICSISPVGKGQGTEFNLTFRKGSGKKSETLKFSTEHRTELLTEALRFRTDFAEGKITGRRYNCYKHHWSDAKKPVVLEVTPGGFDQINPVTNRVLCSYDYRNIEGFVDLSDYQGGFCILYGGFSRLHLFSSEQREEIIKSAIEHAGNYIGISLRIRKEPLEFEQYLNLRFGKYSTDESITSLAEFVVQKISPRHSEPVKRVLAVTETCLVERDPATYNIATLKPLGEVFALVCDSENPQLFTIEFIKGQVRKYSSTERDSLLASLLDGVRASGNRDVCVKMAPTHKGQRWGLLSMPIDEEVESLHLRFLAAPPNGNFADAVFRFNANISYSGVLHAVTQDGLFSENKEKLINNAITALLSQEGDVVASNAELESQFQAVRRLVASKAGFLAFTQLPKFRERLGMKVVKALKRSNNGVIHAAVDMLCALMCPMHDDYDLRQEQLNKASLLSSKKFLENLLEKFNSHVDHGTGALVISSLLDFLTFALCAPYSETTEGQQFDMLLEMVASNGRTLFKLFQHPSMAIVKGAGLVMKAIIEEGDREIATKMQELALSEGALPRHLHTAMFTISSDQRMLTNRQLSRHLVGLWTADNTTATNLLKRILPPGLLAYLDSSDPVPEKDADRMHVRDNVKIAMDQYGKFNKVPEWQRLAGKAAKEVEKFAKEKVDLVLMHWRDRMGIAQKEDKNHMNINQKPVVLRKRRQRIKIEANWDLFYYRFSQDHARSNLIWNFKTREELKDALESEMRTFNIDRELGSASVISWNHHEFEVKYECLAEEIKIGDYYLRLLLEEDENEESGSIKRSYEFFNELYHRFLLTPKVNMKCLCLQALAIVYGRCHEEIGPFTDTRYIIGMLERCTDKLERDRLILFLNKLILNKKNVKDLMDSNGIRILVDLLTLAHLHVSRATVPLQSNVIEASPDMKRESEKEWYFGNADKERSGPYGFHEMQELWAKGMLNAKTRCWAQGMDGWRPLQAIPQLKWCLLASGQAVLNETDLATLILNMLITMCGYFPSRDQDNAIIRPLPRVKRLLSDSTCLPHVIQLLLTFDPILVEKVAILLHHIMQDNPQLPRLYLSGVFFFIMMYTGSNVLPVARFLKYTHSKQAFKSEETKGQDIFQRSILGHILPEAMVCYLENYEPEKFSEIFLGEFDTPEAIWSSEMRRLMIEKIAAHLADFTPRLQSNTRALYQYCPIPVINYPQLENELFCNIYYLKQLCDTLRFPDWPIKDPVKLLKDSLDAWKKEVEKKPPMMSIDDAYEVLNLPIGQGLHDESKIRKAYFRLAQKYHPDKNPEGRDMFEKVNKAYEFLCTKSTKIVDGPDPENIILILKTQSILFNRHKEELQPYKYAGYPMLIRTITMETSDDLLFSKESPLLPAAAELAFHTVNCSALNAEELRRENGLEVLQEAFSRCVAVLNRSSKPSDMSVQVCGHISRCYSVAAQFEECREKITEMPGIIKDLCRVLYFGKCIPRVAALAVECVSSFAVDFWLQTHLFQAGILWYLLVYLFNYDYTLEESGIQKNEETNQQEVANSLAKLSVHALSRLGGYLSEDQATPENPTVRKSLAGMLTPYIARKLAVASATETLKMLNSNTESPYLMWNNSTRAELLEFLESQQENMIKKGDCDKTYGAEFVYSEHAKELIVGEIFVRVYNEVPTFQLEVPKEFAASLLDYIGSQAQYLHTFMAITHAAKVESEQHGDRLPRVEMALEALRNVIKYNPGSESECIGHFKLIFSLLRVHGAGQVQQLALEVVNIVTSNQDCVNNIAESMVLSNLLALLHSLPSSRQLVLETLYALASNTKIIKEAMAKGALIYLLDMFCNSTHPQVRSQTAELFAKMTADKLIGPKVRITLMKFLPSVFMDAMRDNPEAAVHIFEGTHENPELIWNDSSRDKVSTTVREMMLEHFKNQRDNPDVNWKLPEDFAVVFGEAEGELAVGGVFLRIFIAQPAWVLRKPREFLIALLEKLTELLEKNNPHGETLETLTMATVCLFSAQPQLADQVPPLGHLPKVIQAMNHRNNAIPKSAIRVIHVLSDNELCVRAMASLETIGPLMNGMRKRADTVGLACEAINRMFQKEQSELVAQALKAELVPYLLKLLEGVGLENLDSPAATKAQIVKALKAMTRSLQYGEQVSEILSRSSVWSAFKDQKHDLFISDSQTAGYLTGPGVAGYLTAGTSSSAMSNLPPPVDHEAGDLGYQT

Assay [1] deals with T1, cMyc-A2AR^284–410 (C-terminus of mouse adenosine A2A receptor tagged with cMyc epitope) (mouse) (UniProt Q60613).
T1 sequence: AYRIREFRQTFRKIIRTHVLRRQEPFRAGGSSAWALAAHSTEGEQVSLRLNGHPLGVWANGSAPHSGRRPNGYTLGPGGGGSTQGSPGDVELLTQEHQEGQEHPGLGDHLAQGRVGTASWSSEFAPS
The assay is described as follows: affinity purification with mass spectrometry; co-IP of cMyc-A2AR^284–410 with 1 µg anti-cMyc antibody (isotype control IgG1 in parallel) from 500 µg protein extract of transfected RAW 264.7 cells in RIPA buffer diluted with PBS, overnight at 4 °C; SDS-PAGE, trypsin digest, MALDI-TOF mass spectrometry.

In assay [2] the target is T2, GST-A2AR^284–410 (C-terminus of mouse adenosine A2A receptor fused to GST) (mouse) (UniProt Q60613).
T2 sequence: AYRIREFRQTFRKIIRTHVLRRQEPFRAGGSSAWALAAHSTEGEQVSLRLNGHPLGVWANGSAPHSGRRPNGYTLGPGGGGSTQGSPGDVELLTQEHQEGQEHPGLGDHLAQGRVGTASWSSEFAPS
The assay is described as follows: affinity purification with mass spectrometry; pull-down: 20 µg MagneGST-bound GST-A2AR^284–410 (GST alone in parallel) incubated with 500 µg mouse peritoneal macrophage (IPMФ) lysate overnight at 4 °C; SDS-PAGE, trypsin digest, MALDI-TOF mass spectrometry; only the target purified.

No constants are given. Whether binding was seen depends on the method and setting. Binding seen in cells or lysates may run through a third protein. These calls come from enrichment with a bait or labelling near it, and not all partners need be listed. Where a sequence is shown, tags or fusion partners need not be part of it.

Take Annexin A5 (from UniProt P48036 1-319): the binding result in assay [1] and in assay [2] was “binds” each time.
For “Cathepsin D (from UniProt P18242) (enzyme)”, the binding result in assay [1] and in assay [2] was “binds” each time.
As for “Chaperone protein DnaJ (from UniProt P63037)”, the binding result in assay [1] and in assay [2] was “binds” in each case.
“Ras-related protein Rab 18 (from UniProt P35293 1-206)”: the binding result in assay [1] and in assay [2] was “binds” each time.
As for “Sec1 family domain-containing protein 1 (from UniProt Q8BRF7 1-639)”, the binding result in assay [1] and in assay [2] was “binds” each time.
In the case of “Heterogeneous nuclear ribonucleoprotein U-like protein 2 (from UniProt Q00PI9 1-745)”, the binding result in assay [1] and in assay [2] was “binds” throughout.
Regarding “Serine/threonine-protein phosphatase (mouse (endogenous in RAW 264.7 and IPMФ)) (enzyme)”, the binding entry in assay [1] and in assay [2] was “binds” each time.
Take “Niemann–Pick C1 protein (mouse, endogenous) (from UniProt O35604 23-1277)”: the binding result in assay [1] and in assay [2] was “binds” throughout.
As to Coronin-1B (from UniProt Q9WUM3 1-484), the binding result in assay [1] and in assay [2] was “binds” in each case.
“Receptor mediated endocytosis-8 (from UniProt D4AFX7 1-2248)”: the binding result in assay [1] and in assay [2] was “binds” in each case.
Consider “Alpha glucosidase 2 alpha neutral subunit (from UniProt Q8BHN3-2) (enzyme)”, for which the binding entry in assay [1] and in assay [2] was “binds” in each case.

B1: Caprin-1 (protein, UniProt Q60865 1-707)
chain: MPSATSHSGSGSKSSGPPPPSGSSGSEAAAGAAAPASQHPATGTGAVQTEAMKQILGVIDKKLRNLEKKKGKLDDYQERMNKGERLNQDQLDAVSKYQEVTNNLEFAKELQRSFMALSQDIQKTIKKTARREQLMREEAEQKRLKTVLELQYVLDKLGDDDVRTDLKQGLSGVPILSEEELSLLDEFYKLVDPERDMSLRLNEQYEHASIHLWDLLEGKEKPVCGTTYKALKEIVERVFQSNYFDSTHNHQNGLCEEEEAASAPTVEDQVAEAEPEPAEEYTEQSEVESTEYVNRQFMAETQFSSGEKEQVDEWTVETVEVVNSLQQQPQAASPSVPEPHSLTPVAQSDPLVRRQRVQDLMAQMQGPYNFIQDSMLDFENQTLDPAIVSAQPMNPTQNMDMPQLVCPQVHSESRLAQSNQVPVQPEATQVPLVSSTSEGYTASQPLYQPSHATEQRPQKEPMDQIQATISLNTDQTTASSSLPAASQPQVFQAGTSKPLHSSGINVNAAPFQSMQTVFNMNAPVPPANEPETLKQQSQYQATYNQSFSSQPHQVEQTELQQDQLQTVVGTYHGSQDQPHQVPGNHQQPPQQNTGFPRSSQPYYNSRGVSRGGSRGARGLMNGYRGPANGFRGGYDGYRPSFSNTPNSGYSQSQFTAPRDYSGYQRDGYQQNFKRGSGQSGPRGAPRGRGGPPRPNRGMPQMNTQQVN
In the case of B1, the binding entry in assay [1] and in assay [2] was “binds” each time.

B2: Myeloid cell nuclear differentiation antigen-like protein (protein, UniProt D0QMC3 1-538)
chain: MAEYKKIVLLKGLESMEDYQFRTVKSLLRKELKLTKKLQEDYDRIQLADWMEDKFPKYAGLDKLIKVCEHIKDLKDLAKKLKTEKAKVQKKKQGKCKTAVKKKGQDELSSSESLFINKESYKSVPSSKKKGKAIAKTEGEKKNKLTQDQDHLPETSGTDIKTEEDCLQNSPKPPPTSPSSSSNKKKRKEITKTEGGKKKKLTQEQAQLPEPLGTDIKKDEDCLQTPPKPPPTPPSSSLNKKRKSRREEETGVKKSKAAKEPDQPPCCEEPTARCQSPILHSSSSASSNIPSATNQKPQPQNQNIPRGAVLHSEPLTVMVLTATDPFEYESPEHEVKNMFHATVATVSQYFHVKVFNINLKEKFTKKNFIIISNYFESKGILEINETSSVLKADPDQMIEVPNNIIRNANASPKICDIQKGTSGAVFYGVFTLHKKKVKTQNTSYEIKDGSGSIEVEGSGQWHNINCKEGDKLHLFCFHLKRERGQPKLVCGDHSFVKIKVTKAGKKKEASTVLSSTKNEEENNYPKDGIKVEMPDYHV
B2: the binding entry in assay [1] and in assay [2] was “binds” each time.

B3: DNA topoisomerase 1 (enzyme, UniProt Q04750 1-767)
chain: MSGDHLHNDSQIEADFRLNDSHKHKDKHKDREHRHKEHKKDKDKDREKSKHSNSEHKDSEKKHKEKEKTKHKDGSSEKHKDKHKDRDKERRKEEKIRAAGDAKIKKEKENGFSSPPRIKDEPEDDGYFAPPKEDIKPLKRLRDEDDADYKPKKIKTEDIKKEKKRKSEEEEDGKLKKPKNKDKDKKVAEPDNKKKKPKKEEEQKWKWWEEERYPEGIKWKFLEHKGPVFAPPYEPLPESVKFYYDGKVMKLSPKAEEVATFFAKMLDHEYTTKEIFRKNFFKDWRKEMTNDEKNTITNLSKCDFTQMSQYFKAQSEARKQMSKEEKLKIKEENEKLLKEYGFCVMDNHRERIANFKIEPPGLFRGRGNHPKMGMLKRRIMPEDIIINCSKDAKVPSPPPGHKWKEVRHDNKVTWLVSWTENIQGSIKYIMLNPSSRIKGEKDWQKYETARRLKKCVDKIRNQYREDWKSKEMKVRQRAVALYFIDKLALRAGNEKEEGETADTVGCCSLRVEHINLHPELDGQEYVVEFDFPGKDSIRYYNKVPVEKRVFKNLQLFMENKQPEDDLFDRLNTGILNKHLQDLMEGLTAKVFRTYNASITLQQQLKELTAPDENVPAKILSYNRANRAVAILCNHQRAPPKTFEKSMMNLQSKIDAKKDQLADARRDLKSAKADAKVMKDAKTKKVVESKKKAVQRLEEQLMKLEVQATDREENKQIALGTSKLNYLDPRITVAWCKKWGVPIEKIYNKTQREKFAWAIDMTDEDYEF
As for B3, the binding result in assay [1] and in assay [2] was “binds” in each case.

B4: Coatomer subunit gamma-2 (protein, UniProt Q9QXK3 1-871)
chain: MIKKFDKKDEESGSGSNPFQHLEKSAVLQEARIFNETPINPRRCLHILTKILYLLNQGEHFGTMEATEAFFAMTRLFQSNDQTLRRMCYLTIKEMATISEDVIIVTSSLTKDMTGKEDVYRGPAIRALCRITDGTMLQAVERYMKQAIVDKVSSVASSALVSSLHMMKISYDVVKRWINEAQEAASSDNIMVQYHALGVLYHLRKNDRLAVSKMLNKFTKSGLKSQFAYCMLIRIASRLLKESEDGHESPLFDFIESCLRNKHEMVIYEAASAIIHLPNCTARELAPAVSVLQLFCSSPKPALRYAAVRTLNKVAMKHPSAVTACNLDLENLITDSNRSIATLAITTLLKTGSESSVDRLMKQISSFVSEISDEFKVVVVQAISALCHKYPRKHSVMMTFLSNMLRDDGGFEYKKAIVDCIISIVEENPESKEAGLAHLCEFIEDCEHTVLATKILHLLGKEGPRTPVPSKYIRFIFNRVVLENEAVRAAAVSALAKFGAQNESLLPSILVLLQRCMMDTDDEVRDRATFYLNVLQQRQMALNATYIFNGLTVSIPGMEKALHQYTLEPSEKPFDMKSIPLAMAPVFEQKSEITLVTPKPEKLAPSRQDIFQEQLAAIPEFMNLGPLFKSSEPVQLTEAETEYFVRCVKHMFTDHIVFQFDCTNTLNDQLLEKVTVQMEPSDSYEVLCCIPAPSLPYNQPGICYTLVRLPDEDPTAVAGTFSCTMKFTVRDCDPNTGVPDEDGYDDEYVLEDLEVTVSDHIQKILKPNFAAAWEEVGDAFEKEETFALSSTKTLEEAVNNIITFLGMQPCERSDKVPENKNSHSLYLAGVYRGGYDLLVRSRLALADGVTMQVTVRSKERTPVDVILASVG
Take B4: the binding result in assay [1] and in assay [2] was “binds” throughout.

B5: RUN and FYVE domain containing protein (protein, UniProt Q8BIJ7 1-712)
chain: MAARGECRRAGQDSEPEPEREPESEPGPEPEPQAGLESGEAFEIVDRSQLPSPGELRSASRPRVADSWSAPILTLARRATGNLSASCGSALRAAAGLGDGGGGGERAASKGQMMEERANLMHMMKLSIKVLLQSALSLGRSLDADYAPLQQFFVVMEHCLKHGLKVKKSFIGQNKSFFGPLELVEKLCPEASDIATSVRNLPELKTAVGRGRAWLYLALMQKKLADYLKVLIDNKQLLSEFYEPEALMMEEEGMVIVGLLVGLNVLDANLCLKGEDLDSQVGVIDFSLCLKDAQDLDSGREHERITDVLDQKNYVEELNRHLSCTVGDLQTKIDGLEKTNSKLQEELSAATDRICSLQKEQQQLREQNEVIRERSEKSVEITKQDTKVELETYKQTRQGLDEMYSDVWKQLKEEKKVRLELEKELELQIGMKTEMEIAMKLLEKDTHEKQDTLVALRQQLEEVKAINLQMFHKVQSAESSLQQKNEAIASFEGKTTQVMSSMKQMEERLQQAERARQAAEERSHKLQQELSGRGSALQLQLSQLRDQCSGLEKELKSEKEQRQALQRELQREKDTSCLLQTELQQVEGLKKELRELQDEKAELRKVCEEQEQALQEMGLHLSQSKLKMEDIKEVNKALKGHTWLKDDEATHCKQCEKDFSISRRKHHCRNCGHIFCNTCSSNELALPSYPKPVRVCDSCHTLLLQRCSSTAS
On to B5, for which the binding entry in assay [1] and in assay [2] was “binds” in each case.

B6: Monoacylglycerol lipase ABHD12n (enzyme, UniProt Q99LR1 1-398)
chain: MRKRTEPVTLEHERCAASGSSSSGSAAAALDADCSLKQNLRLAGKGTAEPHSASDAGMKRALGRRKSLWFRLRKILLCVLGFYIAIPFLVKLCPGIQAKLIFLNFVRVPYFIDLKKPQDQGLNHTCNYYLQPEDDVTIGVWHTIPSVWWKNAQGKDQMWYEDALASNHAIILYLHGNAGTRGGDHRVELYKVLSSLGYHVVTFDYRGWGDSVGTPSERGMTYDALHVFDWIKARSGDNPVYIWGHSLGTGVATNLVRRLCERETPPDALILESPFTNIREEAKSHPFSVIYRYFPGFDWFFLDPITSSGIKFANDENMKHISCPLLILHAEDDPVVPFHLGRKLYNIAAPSRSFRDFKVQFIPFHSDLGYRHKYIYKSPELPRILREFLGKSEPERQH
In the case of B6, the binding entry in assay [1] and in assay [2] was “binds” each time.
